{"source": "patent US12491184B2", "about": "(Veradermics, Incorporated, priority 2022, dated 2025)", "key": {"[1]": {"tested_on": "patient with androgenetic alopecia", "conditions": "1.25 mg QID; patient reported; frontal scalp and crown"}, "[2]": {"tested_on": "patient with androgenetic alopecia", "experiment": "Case study: person with androgenetic alopecia and hypertension, oral minoxidil", "format": "in vivo, human", "conditions": "0.625 mg four times a day; patient reported"}}, "note": "Read-outs that look alike come from different tables or passages of the source. At least one structure is not confirmed: it was looked up by name or label, or the drawing left a doubt.", "data": [{"compound": "Nc1cc(N2CCCCC2)nc(N)[n+]1[O-]", "note": "[minoxidil]", "values": [{"measurement": "improvement in androgenetic alopecia", "setting": "[1]", "value": "subjective improvement in hair thickness and hair density"}, {"measurement": "improvement in androgenetic alopecia", "setting": "[2]", "value": "subjective improvement in hair thickness and hair density"}]}]}
